PubChem BioAssay AID1508597 – Cure First – 2020
This is an unselected part of the about 2,100 reagents, under one of the conditions tested. 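Calls flag viability under 80% in either arm, not effects specific to rucaparib; the reference for percent is not stated.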 Unmarked entries are inactive. Some reagents were tested in more than one well and are listed for each. Not stated in the record: the 100% reference.

Assay: 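Genes whose silencing sensitises or protects ovarian cancer cells against rucaparib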 (primary screen)
Cells: human ovarian carcinoma lines grown from tumours: OCI-P5x (papillary serous) and OCI-C5x (clear cell)
Knock-down reagent: siRNA pool against human genes, 1.25 pmol siRNA per well
Timing: 72 h or 96 h, depending on the cell culture
Challenge: rucaparib 20 µM (about IC30) or vehicle, present until read-out
Rucaparib or vehicle: Rucaparib
Cell line: OCI-P5x (serous)
Detection: 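Luminescent ATP-based viability assay read 72 or 96 h after transfection, depending on culture, given as normalised percent viability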
Direction: viability, normalised: higher = more viable cells remaining
Active means: 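Active when normalised viability falls below 80 percent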
Meaning of the calls: active = viability under 80%; inactive = viability 80% or more

For UBE2N (ubiquitin conjugating enzyme E2 N) [SID405526601], technical replicate 1, the values are viability, normalised (%) = 73.9 (active).
With UBE2N (ubiquitin conjugating enzyme E2 N) [SID405526601], technical replicate 1 the deposit lists viability, normalised (%) = 51 (active).
UBE2N (ubiquitin conjugating enzyme E2 N) [SID405526601], technical replicate 2 showed viability, normalised (%) = 53 (active).
UBE2N (ubiquitin conjugating enzyme E2 N) [SID405526601], technical replicate 2 showed viability, normalised (%) = 69.8 (active).
With UBE2N (ubiquitin conjugating enzyme E2 N) [SID405526601], technical replicate 3, the values are viability, normalised (%) = 87.7.
For UBE2N (ubiquitin conjugating enzyme E2 N) [SID405526601], technical replicate 3, the values are viability, normalised (%) = 47.2 (active).
STK32B (serine/threonine kinase 32B) [SID405527781], technical replicate 1 scored viability, normalised (%) = 72.6 (active).
For STK32B (serine/threonine kinase 32B) [SID405527781], technical replicate 2, the entry reads viability, normalised (%) = 55.4 (active).
With STK32B (serine/threonine kinase 32B) [SID405527781], technical replicate 3, the values are viability, normalised (%) = 78.7 (active).
For RMI1 (RecQ mediated genome instability 1) [SID405528378], technical replicate 1, the values are viability, normalised (%) = 73.2 (active).
With RMI1 (RecQ mediated genome instability 1) [SID405528378], technical replicate 2, the values are viability, normalised (%) = 118.
For RMI1 (RecQ mediated genome instability 1) [SID405528378], technical replicate 3, the values are viability, normalised (%) = 89.3.
For BAIAP2 (BAR/IMD domain containing adaptor protein 2) [SID405527741], technical replicate 1 the deposit lists viability, normalised (%) = 98.1.
With BAIAP2 (BAR/IMD domain containing adaptor protein 2) [SID405527741], technical replicate 2 the deposit lists viability, normalised (%) = 97.
BAIAP2 (BAR/IMD domain containing adaptor protein 2) [SID405527741], technical replicate 3 scored viability, normalised (%) = 69.1 (active).

A few values from the list:
BAIAP2 (BAR/IMD domain containing adaptor protein 2) [SID405527741], technical replicate 1, viability, normalised (%) = 98.1
Result of STK32B (serine/threonine kinase 32B) [SID405527781], technical replicate 3 in “viability, normalised (%)”: 78.7 (active)
For “viability, normalised (%)”, STK32B (serine/threonine kinase 32B) [SID405527781], technical replicate 1 reads 72.6 (active)
BAIAP2 (BAR/IMD domain containing adaptor protein 2) [SID405527741], technical replicate 3, viability, normalised (%): 69.1 (active)

More reagents follow.
RUVBL1 (RuvB like AAA ATPase 1) [SID405527264], technical replicate 1 gave viability, normalised (%) = 56.6 (active).
For RUVBL1 (RuvB like AAA ATPase 1) [SID405527264], technical replicate 2, the values are viability, normalised (%) = 49.9 (active).
RUVBL1 (RuvB like AAA ATPase 1) [SID405527264], technical replicate 3 scored viability, normalised (%) = 50.8 (active).
RPS6KL1 (ribosomal protein S6 kinase like 1) [SID405527927], technical replicate 1 gave viability, normalised (%) = 56.7 (active).
RPS6KL1 (ribosomal protein S6 kinase like 1) [SID405527927], technical replicate 2 gave viability, normalised (%) = 60.4 (active).
For RPS6KL1 (ribosomal protein S6 kinase like 1) [SID405527927], technical replicate 3, the values are viability, normalised (%) = 65.9 (active).
For CDK2 (cyclin dependent kinase 2) [SID405526471], technical replicate 1 the deposit lists viability, normalised (%) = 50.4 (active).
For CDK2 (cyclin dependent kinase 2) [SID405526471], technical replicate 1, the values are viability, normalised (%) = 98.4.
CDK2 (cyclin dependent kinase 2) [SID405526471], technical replicate 2 scored viability, normalised (%) = 130.
CDK2 (cyclin dependent kinase 2) [SID405526471], technical replicate 2 scored viability, normalised (%) = 62.8 (active).
CDK2 (cyclin dependent kinase 2) [SID405526471], technical replicate 3 scored viability, normalised (%) = 96.7.
With CDK2 (cyclin dependent kinase 2) [SID405526471], technical replicate 3, the entry reads viability, normalised (%) = 58.4 (active).
With SULT1A2 (sulfotransferase family 1A member 2) [SID405526334], technical replicate 1, the values are viability, normalised (%) = 53.2 (active).
For SULT1A2 (sulfotransferase family 1A member 2) [SID405526334], technical replicate 2, the entry reads viability, normalised (%) = 62.4 (active).
SULT1A2 (sulfotransferase family 1A member 2) [SID405526334], technical replicate 3 gave viability, normalised (%) = 71.2 (active).
With SETD7 (SET domain containing 7, histone lysine methyltransferase) [SID405527286], technical replicate 1, the values are viability, normalised (%) = 43.9 (active).
For SETD7 (SET domain containing 7, histone lysine methyltransferase) [SID405527286], technical replicate 2, the entry reads viability, normalised (%) = 50.7 (active).
For SETD7 (SET domain containing 7, histone lysine methyltransferase) [SID405527286], technical replicate 3 the deposit lists viability, normalised (%) = 50.8 (active).
